Reference: PubChem BioAssay AID686937 (Drosophila RNAi Screening Center, 2013)
Aim: 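Genes in the fly needed for secretion of protein constitutively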 (primary screen). System: Drosophila S2 cells expressing secreted horseradish peroxidase. Reagent: long dsRNA against Drosophila genes. Duration: about 5.5 days (5 days dsRNA, then 12 h reporter induction). Treatment: reporter expression induced after 5 days of dsRNA, read 12 h later; inducer not stated. Measurement: 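Chemiluminescent measurement of peroxidase in the medium 12 h after reporter induction, following 5 days of dsRNA, given as a z-score per plate; higher means more secretion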. Direction: z-score: higher = more reporter secreted into medium.
The deposit covers about 23,000 reagents; shown is a random part of those with a known target gene and a result. 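Reduced-secretion tags in replicate 1 do not always agree with the z-scores; no criterion for assigning the tags was given.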 Names joined by + are all predicted targets of the reagent. Further read-outs or replicates are left out here. The record does not give: the amount of reagent.

What did the screen give for CG14013 [DRSC02344]?
z-score, replicate 1: -0.74

How did the screen score CG16799 [DRSC06626]?
z-score, replicate 1: 0.39

Which result is listed for CG16799 [DRSC21553]?
z-score, replicate 1: -0.47

What is on record for dpr3 (defective proboscis extension response 3) [DRSC00395]?
z-score, replicate 1: 0.19

Which result is listed for dpr3 (defective proboscis extension response 3) [DRSC00396]?
z-score, replicate 1: 0.55

For dpr3 (defective proboscis extension response 3) [DRSC21369], what does the deposit list?
z-score, replicate 1: -1.72

With brp (bruchpilot) [DRSC06245], what does the deposit list?
z-score, replicate 1: 0.27

For brp (bruchpilot) [DRSC06246], how do the results read?
z-score, replicate 1: 0.06

How did the screen score brp (bruchpilot) [DRSC06801]?
z-score, replicate 1: 0.37

How did the screen score brp (bruchpilot) [DRSC21893]?
z-score, replicate 1: 0.13

For CanA1 (Calcineurin A1) [DRSC16600], what was measured?
z-score, replicate 1: 0.35

With ems (empty spiracles) [DRSC16941], how do the results read?
z-score, replicate 1: 0.32

For Lsd-1 (Lipid storage droplet-1) [DRSC14236], what was measured?
z-score, replicate 1: 0.3

For Ifrd1 (Interferon-related developmental regulator 1) [DRSC00415], what was measured?
z-score, replicate 1: 0.07

With Ifrd1 (Interferon-related developmental regulator 1) [DRSC00566], what does the deposit list?
z-score, replicate 1: 0.19

How did the screen score CG43084 [DRSC09998]?
z-score, replicate 1: 0.02

How did the screen score CG3257 [DRSC04351]?
z-score, replicate 1: 0.08

What is on record for Ir94g (Ionotropic receptor 94g) [DRSC15231]?
z-score, replicate 1: 0.36

What did the screen give for CG8360 [DRSC03085]?
z-score, replicate 1: 0.5

For ppk16 (pickpocket 16) [DRSC02736], what was measured?
z-score, replicate 1: 0.51

What did the screen give for spoon (spoonbill) [DRSC18299]?
z-score, replicate 1: 0.34

For GstT1 (Glutathione S transferase T1) [DRSC06243], how do the results read?
z-score, replicate 1: 0.22

What did the screen give for Cep89 (Centrosomal protein 89kDa) [DRSC07110]?
z-score, replicate 1: 0.32

For CG31784 [DRSC01574], what does the deposit list?
z-score, replicate 1: -0.16

What did the screen give for CG30192 [DRSC03977]?
z-score, replicate 1: 0.78

For Obp50c + Obp50b [DRSC05482], what does the deposit list?
z-score, replicate 1: 0.13

For CG14785 [DRSC18604], what was measured?
z-score, replicate 1: 0.35

With Ndae1 (Na[+]-driven anion exchanger 1) [DRSC00975], how do the results read?
z-score, replicate 1: -0.9

With Ndae1 (Na[+]-driven anion exchanger 1) [DRSC02770], how do the results read?
z-score, replicate 1: 0.04

Which result is listed for CG44837 [DRSC10133]?
z-score, replicate 1: -0.55

What is on record for CG44837 [DRSC10558]?
z-score, replicate 1: 0.1

Which result is listed for Act87E (Actin 87E) [DRSC22578]?
z-score, replicate 1: -0.02

For l(1)G0469 (lethal (1) G0469) [DRSC19412], how do the results read?
z-score, replicate 1: 0.51

With l(1)G0469 (lethal (1) G0469) [DRSC19462], what does the deposit list?
z-score, replicate 1: 0.13

What is on record for mor (moira) [DRSC15378]?
z-score, replicate 1: -1.28

Which result is listed for CG31098 [DRSC14259]?
z-score, replicate 1: 0

With CG15296 [DRSC17983], what was measured?
z-score, replicate 1: 0.33

What is on record for sowi (solwind) [DRSC12558]?
z-score, replicate 1: 0.14

How did the screen score CG43069 [DRSC05752]?
z-score, replicate 1: 0.23

For CG15721 [DRSC19688], what does the deposit list?
z-score, replicate 1: 0.35

Reformatted: results already given
{"gene knocked down": "Ifrd1 (Interferon-related developmental regulator 1)", "amplicon": "DRSC00415", "z-score, replicate 1": 0.07}
{"gene knocked down": "Ifrd1 (Interferon-related developmental regulator 1)", "amplicon": "DRSC00566", "z-score, replicate 1": 0.19}
